The text below walks through data of patent US20200199202A1.

Amino acid sequences for entries named in this document (tags omitted). A change or cut given only in a name is not applied to a line headed by its entry.
UniProt O15118: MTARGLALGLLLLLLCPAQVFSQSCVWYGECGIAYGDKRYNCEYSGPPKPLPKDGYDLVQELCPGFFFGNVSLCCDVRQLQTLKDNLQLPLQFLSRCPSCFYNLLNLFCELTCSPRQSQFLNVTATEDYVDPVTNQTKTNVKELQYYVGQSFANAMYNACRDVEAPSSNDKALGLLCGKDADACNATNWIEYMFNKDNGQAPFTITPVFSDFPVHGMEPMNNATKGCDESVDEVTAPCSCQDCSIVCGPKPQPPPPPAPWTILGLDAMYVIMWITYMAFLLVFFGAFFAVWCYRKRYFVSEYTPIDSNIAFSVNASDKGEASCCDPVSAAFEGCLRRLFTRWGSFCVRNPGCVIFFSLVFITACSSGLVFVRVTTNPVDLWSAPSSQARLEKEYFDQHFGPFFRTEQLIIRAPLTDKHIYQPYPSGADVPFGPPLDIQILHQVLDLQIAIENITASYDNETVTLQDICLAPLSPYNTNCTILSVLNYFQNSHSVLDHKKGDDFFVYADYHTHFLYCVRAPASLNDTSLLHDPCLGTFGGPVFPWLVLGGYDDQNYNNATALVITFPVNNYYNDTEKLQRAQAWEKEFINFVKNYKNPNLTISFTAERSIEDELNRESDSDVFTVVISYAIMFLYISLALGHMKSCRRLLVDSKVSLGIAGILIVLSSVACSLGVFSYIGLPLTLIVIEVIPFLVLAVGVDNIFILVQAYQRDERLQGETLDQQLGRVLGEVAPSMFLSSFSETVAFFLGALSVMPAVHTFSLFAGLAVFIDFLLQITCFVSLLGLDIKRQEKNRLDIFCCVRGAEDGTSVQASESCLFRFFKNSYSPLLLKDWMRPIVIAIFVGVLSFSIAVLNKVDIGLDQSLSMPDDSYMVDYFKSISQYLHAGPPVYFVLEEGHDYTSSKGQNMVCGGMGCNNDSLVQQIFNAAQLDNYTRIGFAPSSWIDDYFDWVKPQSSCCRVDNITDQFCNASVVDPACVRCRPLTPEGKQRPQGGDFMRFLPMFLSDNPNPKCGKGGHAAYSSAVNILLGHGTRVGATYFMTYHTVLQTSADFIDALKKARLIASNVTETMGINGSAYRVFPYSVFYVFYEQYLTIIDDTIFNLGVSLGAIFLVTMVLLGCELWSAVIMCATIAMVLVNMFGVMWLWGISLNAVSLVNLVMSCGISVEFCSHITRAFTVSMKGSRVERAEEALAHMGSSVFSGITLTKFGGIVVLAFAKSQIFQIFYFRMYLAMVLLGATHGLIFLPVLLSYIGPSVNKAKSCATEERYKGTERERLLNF

No constants are given. Whether binding was seen depends on the method and setting. Some results given as binding are weak or reduced against the parent protein; the word gives no strength.

The target in this assay is soluble human NPC1 domain C protein (human) (UniProt O15118). The assay can be described thus: BLI. For orientation: In BLI a coated tip is dipped into the sample, and binding shifts an interference pattern.

B1: mAb 548 (anti-human NPC1 domain C monoclonal antibody) (antibody, V domains shown)
VH: EVQLQQSGAELVKPGASVKLSCTASGFNIKDTYMHWVKQRPEEGLEWIGRIDPADGNTEYVPKFQGKATITADTFSNTVYLQLSGLTSEDTAVYYCSRGYYWGQGTTLTVSS
VL: DIQMTQSPASLSASVGETVTITCRASENIYSYLAWYQQKQGKSPQLLVYNAKTLAEGVPSRFSGSGSGTQFSLKINSLQPEDFGIYYCQHHYGSPWAFGGGTKLEIK
For the molecule B1, the binding result was “binds”.
